By UniProt entry, the sequences of proteins in these tests, tags left out. Residues count along the entry.
UniProt D4A5I9, residues 1046-1285: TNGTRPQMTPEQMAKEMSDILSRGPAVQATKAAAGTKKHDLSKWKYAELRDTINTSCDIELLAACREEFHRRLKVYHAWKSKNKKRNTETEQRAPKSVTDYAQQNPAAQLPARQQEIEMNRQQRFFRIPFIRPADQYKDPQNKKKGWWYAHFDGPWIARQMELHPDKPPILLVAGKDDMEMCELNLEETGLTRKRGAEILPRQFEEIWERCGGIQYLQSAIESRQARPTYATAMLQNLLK
UniProt P04785, residues 20-509: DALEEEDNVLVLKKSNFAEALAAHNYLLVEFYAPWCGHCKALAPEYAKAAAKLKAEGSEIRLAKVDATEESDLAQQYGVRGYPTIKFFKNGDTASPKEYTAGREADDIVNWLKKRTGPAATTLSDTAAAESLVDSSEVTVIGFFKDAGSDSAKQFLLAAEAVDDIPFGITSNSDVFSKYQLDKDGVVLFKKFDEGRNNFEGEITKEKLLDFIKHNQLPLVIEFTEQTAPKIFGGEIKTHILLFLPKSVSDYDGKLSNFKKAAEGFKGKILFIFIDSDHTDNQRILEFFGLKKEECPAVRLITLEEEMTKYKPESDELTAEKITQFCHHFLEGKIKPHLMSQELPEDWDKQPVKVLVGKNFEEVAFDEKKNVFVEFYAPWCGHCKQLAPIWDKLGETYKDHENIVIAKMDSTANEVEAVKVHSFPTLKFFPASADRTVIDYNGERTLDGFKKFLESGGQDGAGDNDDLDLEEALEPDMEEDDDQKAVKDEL
UniProt Q6IMY8: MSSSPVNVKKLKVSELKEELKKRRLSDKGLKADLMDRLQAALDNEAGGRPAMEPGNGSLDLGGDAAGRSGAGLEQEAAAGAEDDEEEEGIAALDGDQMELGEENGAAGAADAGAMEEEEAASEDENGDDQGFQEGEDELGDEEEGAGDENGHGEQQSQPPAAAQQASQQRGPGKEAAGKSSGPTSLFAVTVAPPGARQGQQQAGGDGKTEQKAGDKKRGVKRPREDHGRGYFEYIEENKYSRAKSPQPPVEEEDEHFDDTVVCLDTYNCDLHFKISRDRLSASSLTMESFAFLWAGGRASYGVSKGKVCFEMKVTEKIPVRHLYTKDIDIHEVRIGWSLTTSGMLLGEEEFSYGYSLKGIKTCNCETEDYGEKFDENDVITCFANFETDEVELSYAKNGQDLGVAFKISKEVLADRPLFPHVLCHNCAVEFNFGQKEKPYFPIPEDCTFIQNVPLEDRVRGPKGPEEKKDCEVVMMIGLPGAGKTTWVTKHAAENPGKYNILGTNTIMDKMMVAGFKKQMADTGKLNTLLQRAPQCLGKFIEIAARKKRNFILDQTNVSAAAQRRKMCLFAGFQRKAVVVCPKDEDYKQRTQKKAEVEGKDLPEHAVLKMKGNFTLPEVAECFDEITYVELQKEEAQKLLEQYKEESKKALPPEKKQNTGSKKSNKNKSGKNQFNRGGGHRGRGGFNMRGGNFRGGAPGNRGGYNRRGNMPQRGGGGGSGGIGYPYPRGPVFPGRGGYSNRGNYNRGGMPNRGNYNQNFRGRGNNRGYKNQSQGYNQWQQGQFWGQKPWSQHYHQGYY
UniProt P15865: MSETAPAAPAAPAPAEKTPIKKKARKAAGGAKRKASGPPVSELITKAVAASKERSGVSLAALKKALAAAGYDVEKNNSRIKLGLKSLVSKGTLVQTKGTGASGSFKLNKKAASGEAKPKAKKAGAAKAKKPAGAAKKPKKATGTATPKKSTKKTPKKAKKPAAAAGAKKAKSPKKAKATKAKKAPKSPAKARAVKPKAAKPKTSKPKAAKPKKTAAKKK
UniProt P13383: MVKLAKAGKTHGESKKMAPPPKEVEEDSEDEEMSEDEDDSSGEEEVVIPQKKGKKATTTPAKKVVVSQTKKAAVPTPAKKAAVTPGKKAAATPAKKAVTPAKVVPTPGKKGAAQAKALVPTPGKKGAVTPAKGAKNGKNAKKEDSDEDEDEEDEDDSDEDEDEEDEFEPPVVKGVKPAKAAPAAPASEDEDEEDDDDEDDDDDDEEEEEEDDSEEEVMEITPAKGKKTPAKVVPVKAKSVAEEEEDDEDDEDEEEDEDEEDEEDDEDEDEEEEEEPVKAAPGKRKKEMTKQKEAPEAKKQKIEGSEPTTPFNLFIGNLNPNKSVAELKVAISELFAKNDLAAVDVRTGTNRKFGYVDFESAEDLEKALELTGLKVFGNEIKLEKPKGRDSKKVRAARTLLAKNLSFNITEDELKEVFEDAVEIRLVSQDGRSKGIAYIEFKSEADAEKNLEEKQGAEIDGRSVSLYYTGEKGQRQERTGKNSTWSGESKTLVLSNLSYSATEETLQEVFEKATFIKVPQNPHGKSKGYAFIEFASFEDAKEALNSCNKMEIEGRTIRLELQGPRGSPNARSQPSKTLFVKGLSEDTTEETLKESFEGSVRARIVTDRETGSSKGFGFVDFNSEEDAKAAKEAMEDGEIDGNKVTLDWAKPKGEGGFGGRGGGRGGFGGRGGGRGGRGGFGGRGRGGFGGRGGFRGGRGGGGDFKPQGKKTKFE

According to paper PMC5973263:

B1: synaptotagmin binding, cytoplasmic RNA interacting protein (protein, UniProt Q7TP47 1-533)
chain: MATEHVNGNGTEEPMDTTSAVIHSENFQTLLDAGLPQKVAEKLDEIYVAGQRKYGGPPPDSVYSGQQPSVGTEIFVGKIPRDLFEDELVPLFEKAGPIWDLRLMMDPLTGLNRGYAFVTFCTKEAAQEAVKLYNNHEIRSGKHIGVCISVANNRLFVGSIPKSKTKEQILEEFSKVTEGLTDVILYHQPDDKKKNRGFCFLEYEDHKTAAQARRRLMSGKVKVWGNVGTVEWADPIEDPDPEVMAKVKVLFVRNLANTVTEEILEKSFSQFGKLERVKKLKDYAFIHFDERDGAVKAMEEMNGKDLEGENIEIVFAKPPDQKRKERKAQRQAAKNQMYDDYYYYGPPHMPPPTRGRGRGGRGGYGYPPDYYGYEDYYDYYGYDYHNYRGGYEDPYYGYEDFQVGARGRGGRGARGAAPSRGRGAAPPRGRAGYSQRGGPGSARGVRGARGGAQQQRGRGVRGARGGRGGNVGGKRKADGYNQPDSKRRQTNNQNWGSQPIAQQPLQGGDHSGNYGYKSENEEFYQDTFGQQWK
B2: heterogeneous nuclear ribonucleoprotein M isoform b (protein, UniProt Q62826 1-690)
chain: MAAGVEAAAEVAATEPKMEEESGAPCVPSGNGAPVPKGEERPTQNEKRKEKNIKRGGNRFEPYANPTKRYRAFITNIPFDVKWQSLKDLVKEKVGEVTYVELLMDAEGKSRGCAVVEFKMEESMKKAAEVLNKHSLSGRPLKVKEDPDGEHARRAMQKAGRLGSTVFVANLDYKVGWKKLKEVFSMAGVVVRADILEDKDGKSRGIGTVTFEQSIEAVQAISMFNGQLLFDRPMHVKMDERALPKGDFFPPERPQQLPHGLGGIGMGLGPGGQPIDANHLNKGIGMGNLGPAGMGMEGIGFGINKIGGMEGPFGGGMENMGRFGSGMNMGRINEILSNALKRGEIIAKQGGSGAGGSVPGIERMGPGIDRISGAGMERMGAGLGHGMDRVGSEIERMGLVMDRMGSVERMGSGIERMGPLGLDHMASSIERMGQTMERIGSGVERMGAGMGFGLERMAAPIDRVGQTIERMGSGVERMGPAIERMGLSMDRMVPTGMGAGLERMGPVMDRMATGLERMGANNLERMGLERMGANSLERMGLERMGANSLERMGPAMGPALGAGIERMGLAMGGAGGASFDRTIEMERGNFGGSFAGSFGGAGGHAPGVARKACQIFVRNLPFDFTWKMLKDKFNECGHVLYADIKMENGKSKGCGVVKFESPEVAERACRMMNGMKLSGREIDVRIDRNA
B3: disabled homolog 2, mitogen-responsive phosphoprotein (protein, UniProt O88797 1-768)
chain: MSNEVETSTTNGQPDQQAAPKAPSKKEKKKGSEKTDEYLLARFKGDGVKYKAKLIGIDDVPDARGDKMSQDSMMKLKGMAAAGRSQGQHKQRIWVNISLSGIKIIDEKTGVIEHEHPVNKISFIARDVTDNRAFGYVCGGEGQHQFFAIKTGQQAEPLVVDLKDLFQVIYNVKKKEEEKKKVEEANKAEENGSEALMTLDDQANKLKLGVDQMDLFGDMSTPPDLNNPTESRDILLVDLNSEIDTNQNSLRENPFLTNGVTSCSLPRPKPQASFLPESAFSANLNFFPTPNPDPFRDDPFAQPDQSAPSSFHSLTSADQKKANPGSLSTPQSKGPLNGDTDYFGQQFDQISNRTGKQEAQGGPWPYPSSQTQQAVRTQNGVSEKEQNGFHIKSSPNPFVGSPPKGLSVPNGVKQDLESSVQSSAHDSIAIIPPPQSTKPGRGRRTAKSSANDLLASDIFASEPPGQMSPTGQPAVPQANFMDLFKTSAPAPMGSGPLVGLGTVPVTPPQAGPWTPVVFTPSTTVVPGAIISGQPSGFGQPLVFGTTPAVQVWNQPSSFATAASPPPPAVWCPTTSVAPNTWSSTSPLGNPFQSSNIFPPSTISTQSFPQPMMSSVLVTPPQPPPRNGPLKDTLSDAFTGLDPLGDKEVKEVKEMFKDFQLRQPPLVPSRKGETPSSGTSSAFSSYFNNKVGIPQEHVDHDDFDANQLLNKINEPPKPAPRQGVLSGTKSADNSLENPFSKGFSSTNPSVVSQPASSDAHRSPFGNPFA

Molecular target: GST-fused MVI globular tail domain (rat) (UniProt D4A5I9)
Experiment: affinity purification with mass spectrometry; GST-MVI globular tail (or GST alone) on Glutathione Sepharose 4B; PC12 homogenate pre-cleared with GST beads 2 h at 4°C; 50 mM Tris pH 7.5, 150 mM NaCl, 0.5% Triton X-100, 1 mM DTT, 5 mM EGTA; bound proteins by SDS-PAGE, in-gel trypsin digestion and tandem MS; only the target purified

binding, binds:
Protein disulfide-isomerase (from UniProt P04785 20-509)
SP120 /heterogeneous nuclear ribonucleoprotein U (from UniProt Q6IMY8 1-798)
heterogeneous nuclear ribonucleoprotein K (from UniProt P61980 1-463)
histone (H1d) (from UniProt P15865 1-219)
nucleolin, isoform CRA_d (from UniProt P13383 1-713)
B1
B2
B3

Results are given in words; binding and its absence hold for the method and conditions named. In cells and extracts the contact can be indirect. Here binding means that the protein was enriched with, or labelled near, the bait; the list need not be complete. Where a sequence is shown, tags or fusion partners need not be part of it.
